Earlier results on one compound are cited in patent US20080194024A1, “Culture of Non-Embryonic Cells at High Cell Density” (priority 2005, published 2008).

SMILES strings stand for the structures. The source holds more than one record for some entries. This list holds those alone. The source may hold further records. Results that share an entry do not match, cause unknown; dose, time, organism, isomer or construct need not be as stated for each record.

The series has as its system CDK1-cyclin B complex. The note with it: read-out: IC50 CDK1-cyclin B complex; values marked a: L. Meijer et al., unpublished; cited from earlier work.

What is called IC50 is the concentration needed to halve the response being measured. In the case of `Cn1sc(=O)n(Cc2ccccc2)c1=O` [TDZD8], the IC50 was > 100 µM and > 10 µM.
